The supplement of paper PMC10849652
This is one part of the list.

Chains of the proteins cited; added tags and fusions are not shown. Lines headed by an entry give the natural chain unless they say otherwise; changes in a name come on top.
UniProt P43362: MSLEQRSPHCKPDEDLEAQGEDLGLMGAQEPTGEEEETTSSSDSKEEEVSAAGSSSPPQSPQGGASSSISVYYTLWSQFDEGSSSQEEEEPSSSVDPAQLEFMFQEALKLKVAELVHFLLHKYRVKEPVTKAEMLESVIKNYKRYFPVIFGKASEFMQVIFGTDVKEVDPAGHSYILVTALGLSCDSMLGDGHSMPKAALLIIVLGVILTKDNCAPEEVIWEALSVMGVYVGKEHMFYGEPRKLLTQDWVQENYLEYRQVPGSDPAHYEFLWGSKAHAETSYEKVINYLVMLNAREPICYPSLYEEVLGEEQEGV
UniProt O15116: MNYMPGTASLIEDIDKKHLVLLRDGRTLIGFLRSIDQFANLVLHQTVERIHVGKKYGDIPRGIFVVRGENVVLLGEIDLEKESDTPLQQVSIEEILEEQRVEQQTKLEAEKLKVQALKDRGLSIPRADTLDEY
UniProt P46734: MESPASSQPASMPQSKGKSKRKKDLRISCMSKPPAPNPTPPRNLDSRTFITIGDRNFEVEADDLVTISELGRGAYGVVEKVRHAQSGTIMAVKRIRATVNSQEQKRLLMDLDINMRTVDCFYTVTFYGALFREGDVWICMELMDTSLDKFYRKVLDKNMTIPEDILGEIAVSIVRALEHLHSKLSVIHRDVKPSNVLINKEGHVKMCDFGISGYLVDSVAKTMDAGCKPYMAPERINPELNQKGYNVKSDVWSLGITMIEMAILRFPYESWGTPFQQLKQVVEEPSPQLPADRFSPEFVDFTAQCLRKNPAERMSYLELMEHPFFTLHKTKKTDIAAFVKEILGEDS
UniProt Q5VWZ2: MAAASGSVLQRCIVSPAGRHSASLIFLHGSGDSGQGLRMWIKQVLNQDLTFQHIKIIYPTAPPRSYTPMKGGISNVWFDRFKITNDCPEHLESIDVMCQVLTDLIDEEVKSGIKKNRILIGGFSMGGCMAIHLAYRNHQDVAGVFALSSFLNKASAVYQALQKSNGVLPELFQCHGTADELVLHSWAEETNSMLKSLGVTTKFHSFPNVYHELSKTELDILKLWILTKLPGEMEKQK
UniProt Q5U5X0: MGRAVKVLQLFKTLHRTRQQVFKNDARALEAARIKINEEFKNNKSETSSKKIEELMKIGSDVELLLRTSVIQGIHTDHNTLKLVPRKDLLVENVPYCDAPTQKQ
UniProt Q8WWC4: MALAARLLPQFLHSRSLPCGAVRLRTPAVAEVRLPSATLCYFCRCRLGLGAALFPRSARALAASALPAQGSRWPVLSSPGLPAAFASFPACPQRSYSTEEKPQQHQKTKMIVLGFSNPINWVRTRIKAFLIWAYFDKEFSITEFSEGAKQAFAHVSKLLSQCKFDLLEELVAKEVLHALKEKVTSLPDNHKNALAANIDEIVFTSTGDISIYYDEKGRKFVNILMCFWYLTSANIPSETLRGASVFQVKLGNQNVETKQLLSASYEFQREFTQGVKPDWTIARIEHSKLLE
UniProt Q9NX47: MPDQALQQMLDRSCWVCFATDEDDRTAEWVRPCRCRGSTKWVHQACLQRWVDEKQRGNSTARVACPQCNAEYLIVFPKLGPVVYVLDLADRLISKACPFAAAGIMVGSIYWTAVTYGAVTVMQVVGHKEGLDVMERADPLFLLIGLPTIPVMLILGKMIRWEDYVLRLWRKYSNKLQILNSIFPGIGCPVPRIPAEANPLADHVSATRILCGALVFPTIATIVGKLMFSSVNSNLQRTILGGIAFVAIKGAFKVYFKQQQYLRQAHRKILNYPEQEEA
UniProt P46821: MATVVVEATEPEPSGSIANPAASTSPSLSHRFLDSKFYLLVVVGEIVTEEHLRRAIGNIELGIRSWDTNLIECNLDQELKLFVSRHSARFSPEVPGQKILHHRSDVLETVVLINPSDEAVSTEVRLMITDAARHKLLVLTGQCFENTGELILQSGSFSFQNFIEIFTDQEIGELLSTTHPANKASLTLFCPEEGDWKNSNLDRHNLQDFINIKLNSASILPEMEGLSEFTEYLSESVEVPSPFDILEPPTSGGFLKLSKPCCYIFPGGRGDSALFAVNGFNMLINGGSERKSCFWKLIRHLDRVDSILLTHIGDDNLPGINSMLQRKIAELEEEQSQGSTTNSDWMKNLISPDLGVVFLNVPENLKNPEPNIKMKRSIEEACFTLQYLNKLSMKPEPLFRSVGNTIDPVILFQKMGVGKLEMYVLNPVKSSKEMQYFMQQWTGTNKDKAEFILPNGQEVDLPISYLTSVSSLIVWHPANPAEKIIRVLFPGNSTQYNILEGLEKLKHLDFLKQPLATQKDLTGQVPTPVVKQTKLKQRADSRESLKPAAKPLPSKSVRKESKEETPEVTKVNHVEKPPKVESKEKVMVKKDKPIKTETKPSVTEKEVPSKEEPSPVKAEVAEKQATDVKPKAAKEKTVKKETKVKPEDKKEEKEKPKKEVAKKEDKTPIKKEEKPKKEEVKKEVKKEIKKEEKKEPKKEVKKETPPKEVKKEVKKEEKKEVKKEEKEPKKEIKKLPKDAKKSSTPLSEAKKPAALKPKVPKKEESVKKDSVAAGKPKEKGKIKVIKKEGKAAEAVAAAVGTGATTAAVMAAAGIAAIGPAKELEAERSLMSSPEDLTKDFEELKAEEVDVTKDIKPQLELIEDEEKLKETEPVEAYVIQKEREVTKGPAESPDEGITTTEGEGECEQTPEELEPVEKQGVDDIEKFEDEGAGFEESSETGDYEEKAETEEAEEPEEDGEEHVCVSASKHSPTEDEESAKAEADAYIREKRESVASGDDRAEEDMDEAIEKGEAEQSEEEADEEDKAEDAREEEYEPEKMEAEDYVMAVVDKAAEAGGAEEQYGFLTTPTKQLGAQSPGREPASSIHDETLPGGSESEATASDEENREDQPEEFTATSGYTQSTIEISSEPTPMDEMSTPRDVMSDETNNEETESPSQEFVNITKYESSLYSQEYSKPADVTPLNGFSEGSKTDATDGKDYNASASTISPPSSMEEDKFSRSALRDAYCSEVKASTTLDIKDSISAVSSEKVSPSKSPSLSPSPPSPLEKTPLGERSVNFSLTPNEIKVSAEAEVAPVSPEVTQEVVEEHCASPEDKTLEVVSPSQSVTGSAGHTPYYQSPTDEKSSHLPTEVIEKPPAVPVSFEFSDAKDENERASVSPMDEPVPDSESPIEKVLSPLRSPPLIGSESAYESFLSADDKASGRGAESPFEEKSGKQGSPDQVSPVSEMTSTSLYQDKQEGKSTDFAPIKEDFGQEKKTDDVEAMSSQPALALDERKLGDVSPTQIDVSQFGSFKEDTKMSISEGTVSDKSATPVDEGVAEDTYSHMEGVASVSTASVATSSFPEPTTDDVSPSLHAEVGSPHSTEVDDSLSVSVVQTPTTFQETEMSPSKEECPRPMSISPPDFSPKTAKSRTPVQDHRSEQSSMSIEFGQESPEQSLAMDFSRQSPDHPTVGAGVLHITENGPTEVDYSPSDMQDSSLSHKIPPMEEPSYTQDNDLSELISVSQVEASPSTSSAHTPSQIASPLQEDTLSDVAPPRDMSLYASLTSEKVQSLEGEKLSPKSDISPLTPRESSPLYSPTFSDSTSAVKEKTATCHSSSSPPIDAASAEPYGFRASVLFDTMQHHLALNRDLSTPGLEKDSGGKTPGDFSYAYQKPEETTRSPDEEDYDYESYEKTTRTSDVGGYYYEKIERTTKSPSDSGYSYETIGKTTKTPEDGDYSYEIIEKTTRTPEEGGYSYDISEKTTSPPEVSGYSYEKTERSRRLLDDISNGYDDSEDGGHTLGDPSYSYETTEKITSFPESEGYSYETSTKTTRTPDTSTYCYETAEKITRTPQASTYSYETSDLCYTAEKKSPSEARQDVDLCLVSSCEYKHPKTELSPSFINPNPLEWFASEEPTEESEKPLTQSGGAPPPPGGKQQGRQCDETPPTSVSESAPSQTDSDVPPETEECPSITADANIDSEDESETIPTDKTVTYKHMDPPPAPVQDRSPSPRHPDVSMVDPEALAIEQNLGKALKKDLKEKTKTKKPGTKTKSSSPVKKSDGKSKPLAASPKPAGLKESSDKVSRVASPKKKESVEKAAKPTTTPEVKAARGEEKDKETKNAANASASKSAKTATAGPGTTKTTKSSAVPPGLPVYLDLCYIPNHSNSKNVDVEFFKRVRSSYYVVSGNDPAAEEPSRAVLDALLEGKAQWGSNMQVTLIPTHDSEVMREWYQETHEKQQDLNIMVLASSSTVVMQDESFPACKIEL
UniProt P62310: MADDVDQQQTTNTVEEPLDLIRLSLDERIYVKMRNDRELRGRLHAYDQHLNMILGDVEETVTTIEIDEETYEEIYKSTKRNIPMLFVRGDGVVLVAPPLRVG
UniProt P09960: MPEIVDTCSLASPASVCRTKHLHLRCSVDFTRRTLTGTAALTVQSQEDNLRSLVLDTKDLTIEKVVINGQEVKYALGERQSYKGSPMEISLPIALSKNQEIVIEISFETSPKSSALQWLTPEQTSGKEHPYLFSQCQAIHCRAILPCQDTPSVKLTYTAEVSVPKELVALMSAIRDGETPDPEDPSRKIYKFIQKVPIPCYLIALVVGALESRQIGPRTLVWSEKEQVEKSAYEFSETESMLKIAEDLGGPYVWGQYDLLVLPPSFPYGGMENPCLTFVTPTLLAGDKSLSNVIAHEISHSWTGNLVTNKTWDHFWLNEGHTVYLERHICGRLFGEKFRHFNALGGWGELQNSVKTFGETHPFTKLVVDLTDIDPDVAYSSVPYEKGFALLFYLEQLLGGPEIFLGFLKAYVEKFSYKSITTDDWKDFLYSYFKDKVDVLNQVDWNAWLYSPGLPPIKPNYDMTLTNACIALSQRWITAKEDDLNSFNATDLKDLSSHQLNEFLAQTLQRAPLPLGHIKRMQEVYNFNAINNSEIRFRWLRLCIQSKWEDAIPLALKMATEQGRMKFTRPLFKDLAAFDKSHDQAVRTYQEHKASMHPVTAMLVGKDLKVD
UniProt Q9Y4K4: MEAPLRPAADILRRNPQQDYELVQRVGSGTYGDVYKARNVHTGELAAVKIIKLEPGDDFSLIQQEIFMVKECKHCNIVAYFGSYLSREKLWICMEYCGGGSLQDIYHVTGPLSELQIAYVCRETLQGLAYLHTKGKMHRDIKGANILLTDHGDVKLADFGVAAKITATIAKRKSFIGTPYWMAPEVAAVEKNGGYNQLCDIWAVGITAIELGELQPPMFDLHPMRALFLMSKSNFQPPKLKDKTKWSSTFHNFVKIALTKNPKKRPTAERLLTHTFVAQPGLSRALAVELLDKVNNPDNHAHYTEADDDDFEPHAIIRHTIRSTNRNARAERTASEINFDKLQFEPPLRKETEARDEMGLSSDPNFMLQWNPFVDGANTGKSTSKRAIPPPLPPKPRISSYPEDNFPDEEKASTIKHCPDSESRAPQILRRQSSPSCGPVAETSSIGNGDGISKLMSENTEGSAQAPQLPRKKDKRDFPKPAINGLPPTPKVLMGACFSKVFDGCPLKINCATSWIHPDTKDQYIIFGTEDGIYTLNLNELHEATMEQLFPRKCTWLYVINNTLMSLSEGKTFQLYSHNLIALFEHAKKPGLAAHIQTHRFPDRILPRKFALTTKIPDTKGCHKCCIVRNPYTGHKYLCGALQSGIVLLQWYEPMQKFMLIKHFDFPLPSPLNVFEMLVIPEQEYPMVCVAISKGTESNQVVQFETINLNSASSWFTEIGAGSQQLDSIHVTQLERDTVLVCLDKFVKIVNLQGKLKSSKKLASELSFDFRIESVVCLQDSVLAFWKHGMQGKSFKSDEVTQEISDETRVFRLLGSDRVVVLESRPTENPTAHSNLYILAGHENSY
UniProt Q9BX40: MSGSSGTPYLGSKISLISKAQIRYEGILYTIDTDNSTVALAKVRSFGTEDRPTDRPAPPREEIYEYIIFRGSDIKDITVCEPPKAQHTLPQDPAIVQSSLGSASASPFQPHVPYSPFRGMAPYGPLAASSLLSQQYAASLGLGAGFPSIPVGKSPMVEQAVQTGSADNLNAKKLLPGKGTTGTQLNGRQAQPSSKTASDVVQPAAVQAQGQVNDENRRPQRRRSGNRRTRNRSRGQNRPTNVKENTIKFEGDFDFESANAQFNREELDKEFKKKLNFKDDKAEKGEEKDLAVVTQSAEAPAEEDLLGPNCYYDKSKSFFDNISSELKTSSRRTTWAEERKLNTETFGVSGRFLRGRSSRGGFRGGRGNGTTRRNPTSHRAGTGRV
UniProt Q9HD34: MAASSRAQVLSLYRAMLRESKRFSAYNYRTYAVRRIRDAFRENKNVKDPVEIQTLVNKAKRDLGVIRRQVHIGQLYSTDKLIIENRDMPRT

What was measured:
Test in all cases: log2 fold change, soluble protein after heating vs DMSO (PISA); higher = thermal stabilisation; K562 cells, 10 uM, 30 min; active = over 0.2 and 3.5 SD of the protein, either way, in both replicates (recomputed)
[1] = compound: NC(=O)Nc1cc(-c2cccc(F)c2)sc1C(=O)N[C@H]1CCCNC1
Summary of the method: (§1)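 Soluble protein was quantified by TMTpro 16plex LC-MS/MS after channel sums were equalised. It was obtained as the supernatant after 21,000xg for 90 min from pooled aliquots of K562 cells (2×10^6 cells/mL, 10 μM compound, 30 min) heated for 3 min across 48°C-58°C and extracted in PBS with 0.5% NP-40 at 4°C. Thermal stability values are relative to control samples and come from duplicates. They are given as log2 fold changes.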

[2] = compound: NC(=O)c1cnc(N[C@@H]2CCCC[C@@H]2N)nc1Nc1cccc(-n2nccn2)c1
Summary of the method: as §1

[3] = compound: NC1(c2ccc(-c3nc4ccn5c(=O)[nH]nc5c4cc3-c3ccccc3)cc2)CCC1
Summary of the method: as §1

[4] = compound: NCC(=O)Nc1ccc(-n2nc(C(F)(F)F)cc2-c2ccc3c(ccc4ccccc43)c2)cc1
Summary of the method: as §1

entinostat = compound: Nc1ccccc1NC(=O)c1ccc(CNC(=O)OCc2cccnc2)cc1 [entinostat]
Summary of the method: as §1

vorinostat = compound: O=C(CCCCCCC(=O)Nc1ccccc1)NO [vorinostat]
Summary of the method: as §1

citarinostat = compound: O=C(CCCCCCNC(=O)c1cnc(N(c2ccccc2)c2ccccc2Cl)nc1)NO [citarinostat]
Summary of the method: as §1

silmitasertib = compound: O=C(O)c1ccc2c(c1)nc(Nc1cccc(Cl)c1)c1ccncc12 [silmitasertib]
Summary of the method: as §1

[5] = compound: O=C1NC(=O)C(c2cnc3ccccn23)=C1c1cn2c3c(cc(F)cc13)CN(C(=O)N1CCCCC1)CC2
Summary of the method: as §1

[6] = compound: c1cc(OCCN2CCCCC2)cc(-c2n[nH]c3ccc(-c4nnc[nH]4)cc23)c1
Summary of the method: as §1

Measured: log2 fold change

MAGEA9 (UniProt P43362)
inactive: [1] -0.017 | [2] -0.027 | [3] -0.243 | [4] 0.033 | entinostat 0 | vorinostat 0.132 | citarinostat 0.013 | silmitasertib 0.052 | [5] -0.079 | [6] -0.106

LSM1 (UniProt O15116)
inactive: [1] 0.046 | [2] -0.016 | [3] 0.017 | [4] 0.01 | entinostat -0.058 | vorinostat -0.012 | citarinostat -0.045 | silmitasertib -0.033 | [5] -0.073 | [6] -0.033

MAP2K1 (UniProt Q02750)
inactive: [1] -0.028 | [2] -0.062 | [3] -0.011 | [4] -0.027 | entinostat -0.004 | vorinostat 0.035 | citarinostat 0.022 | silmitasertib -0.064 | [5] -0.061 | [6] -0.035

LTN1 isoform 3 (UniProt O94822)
inactive: [1] 0.024 | [2] -0.079 | [3] -0.125 | [4] -0.09 | entinostat 0.056 | vorinostat 0.148 | citarinostat 0.048 | silmitasertib 0.035 | [5] 0.037 | [6] -0.045

LRSAM1 (UniProt Q6UWE0)
inactive: [1] 0 | [2] 0.012 | [3] -0.121 | [4] 0.018 | entinostat 0.049 | vorinostat 0.04 | citarinostat 0.071 | silmitasertib 0.05 | [5] -0.006 | [6] 0.039

MAP2K3 isoform 3 (UniProt P46734)
inactive: [1] -0.04 | [2] -0.018 | [3] -0.14 | [4] -0.025 | entinostat 0.068 | vorinostat 0.02 | citarinostat -0.126 | silmitasertib -0.024 | [5] -0.188 | [6] -0.052

LYPLAL1 (UniProt Q5VWZ2)
inactive: [1] -0.013 | [2] -0.077 | [3] -0.076 | [4] -0.022 | entinostat 0.037 | vorinostat 0.028 | citarinostat 0.056 | silmitasertib 0.015 | [5] -0.062 | [6] -0.006

LYRM2 (UniProt Q9NU23)
inactive: [1] 0.041 | [2] -0.016 | [3] -0.019 | [4] -0.034 | entinostat 0.043 | vorinostat -0.064 | citarinostat 0.118 | silmitasertib 0.022 | [5] -0.059 | [6] -0.031

LYRM7 (UniProt Q5U5X0)
inactive: [1] -0.071 | [2] -0.041 | [3] -0.037 | [4] 0.072 | entinostat -0.019 | vorinostat 0.011 | citarinostat 0.013 | silmitasertib 0.007 | [5] -0.047 | [6] -0.035

MACC1 (UniProt Q6ZN28)
inactive: [1] -0.133 | [2] -0.071 | [3] -0.175 | [4] -0.044 | entinostat 0.043 | vorinostat -0.031 | citarinostat 0.073 | silmitasertib -0.066 | [5] -0.079 | [6] -0.106

MAIP1 (UniProt Q8WWC4)
inactive: [1] -0.061 | [2] -0.06 | [3] -0.129 | [4] -0.009 | entinostat -0.015 | vorinostat 0.017 | citarinostat 0.076 | silmitasertib -0.012 | [5] -0.085 | [6] -0.012

MACO1 (UniProt Q8N5G2)
inactive: [1] -0.023 | [2] -0.01 | [3] -0.021 | [4] -0.051 | entinostat -0.011 | vorinostat 0.002 | citarinostat -0.024 | silmitasertib -0.014 | [5] 0.048 | [6] -0.023

LSM7 (UniProt Q9UK45)
inactive: [1] -0.007 | [2] -0.008 | [3] -0.002 | [4] -0.012 | entinostat -0.016 | vorinostat -0.067 | citarinostat 0.051 | silmitasertib 0.035 | [5] -0.014 | [6] -0.011

MARCHF5 (UniProt Q9NX47)
inactive: [1] -0.014 | [2] 0.02 | [3] 0.027 | [4] 0.059 | entinostat 0.001 | vorinostat -0.067 | citarinostat -0.007 | silmitasertib 0.006 | [5] -0.041 | [6] -0.056

Two neighbouring entries out of the list so far, quoted:
MAIP1 (UniProt Q8WWC4)
inactive: [1] -0.061 | [2] -0.06 | [3] -0.129 | [4] -0.009 | entinostat -0.015 | vorinostat 0.017 | citarinostat 0.076 | silmitasertib -0.012 | [5] -0.085 | [6] -0.012

MACO1 (UniProt Q8N5G2)
inactive: [1] -0.023 | [2] -0.01 | [3] -0.021 | [4] -0.051 | entinostat -0.011 | vorinostat 0.002 | citarinostat -0.024 | silmitasertib -0.014 | [5] 0.048 | [6] -0.023

(further entries)

MAP1B (UniProt P46821)
inactive: [1] 0.022 | [2] 0.008 | [3] 0.049 | [4] 0.032 | entinostat -0.054 | vorinostat -0.034 | citarinostat -0.025 | silmitasertib 0.018 | [5] 0.007 | [6] -0.059

LSM3 (UniProt P62310)
inactive: [1] 0.006 | [2] 0.017 | [3] -0.058 | [4] 0.117 | entinostat -0.019 | vorinostat -0.095 | citarinostat 0.048 | silmitasertib -0.059 | [5] -0.075 | [6] -0.003

MAP7D1 (UniProt Q3KQU3)
inactive: [1] 0.047 | [2] 0.091 | [3] 0.21 | [4] 0.078 | entinostat -0.001 | vorinostat -0.022 | citarinostat -0.061 | silmitasertib 0.082 | [5] 0.14 | [6] -0.177

MAP7 isoform 7 (UniProt Q14244)
inactive: [1] 0.102 | [2] 0.077 | [3] 0.169 | [4] 0.202 | entinostat -0.085 | vorinostat 0.161 | citarinostat 0.081 | silmitasertib 0.108 | [5] 0.188 | [6] -0.193

MAPK9 (UniProt P45984)
inactive: [1] -0.058 | [2] -0.023 | [3] -0.053 | [4] -0.022 | entinostat -0.028 | vorinostat -0.058 | citarinostat -0.022 | silmitasertib -0.012 | [5] -0.102 | [6] 0.187

LRRFIP2 (UniProt Q9Y608)
inactive: [1] 0.029 | [2] -0.015 | [3] 0.046 | [4] 0.027 | entinostat -0.024 | vorinostat -0.029 | citarinostat 0 | silmitasertib 0.035 | [5] -0.033 | [6] -0.03

LTA4H (UniProt P09960)
inactive: [1] 0.014 | [2] -0.117 | [3] -0.081 | [4] -0.022 | entinostat -0.011 | vorinostat 0.114 | citarinostat 0.064 | silmitasertib 0.022 | [5] -0.012 | [6] -0.037

MAP4 (UniProt E7EVA0)
inactive: [1] 0.162 | [2] 0.165 | [3] 0.144 | [4] 0.105 | entinostat -0.096 | vorinostat -0.018 | citarinostat -0.164 | silmitasertib 0.003 | [5] 0.106 | [6] -0.075

MAN2B1 (UniProt O00754)
inactive: [1] 0.024 | [2] 0.033 | [3] -0.005 | [4] 0.091 | entinostat 0.007 | vorinostat 0.009 | citarinostat 0.06 | silmitasertib 0.037 | [5] 0.038 | [6] -0.011

LTV1 (UniProt Q96GA3)
inactive: [1] 0.006 | [2] 0.008 | [3] 0.003 | [4] 0.041 | entinostat 0.034 | vorinostat -0.005 | citarinostat -0.038 | silmitasertib 0.147 | [5] 0.132 | [6] -0.16

MAP4K5 (UniProt Q9Y4K4)
inactive: [1] 0.217 | [2] 0 | [3] -0.002 | [4] -0.097 | entinostat -0.012 | vorinostat 0.074 | citarinostat 0.02 | silmitasertib -0.09 | [5] 0.073 | [6] 0.026

LSM14B (UniProt Q9BX40)
inactive: [1] 0.028 | [2] -0.008 | [3] 0.015 | [4] -0.137 | entinostat 0.024 | vorinostat 0.13 | citarinostat 0.042 | silmitasertib -0.027 | [5] 0.171 | [6] -0.047

MAD2L1 (UniProt Q13257)
inactive: [1] -0.013 | [2] -0.09 | [3] -0.193 | [4] -0.124 | entinostat 0.036 | vorinostat 0.021 | citarinostat 0.014 | silmitasertib 0.072 | [5] -0.032 | [6] 0.006

MAGT1 (UniProt Q9H0U3)
inactive: [1] -0.09 | [2] -0.063 | [3] -0.024 | [4] 0.017 | entinostat -0.005 | vorinostat 0.008 | citarinostat -0.027 | silmitasertib 0.038 | [5] -0.021 | [6] -0.061

LYRM4 (UniProt Q9HD34)
inactive: [1] 0.027 | [2] 0.012 | [3] -0.037 | [4] -0.042 | entinostat 0.032 | vorinostat 0.005 | citarinostat 0.053 | silmitasertib -0.01 | [5] -0.013 | [6] 0.01

MAPRE2 (UniProt Q15555)
inactive: [1] 0.522 | [2] 0.138 | [3] 0.069 | [4] 0.248 | entinostat 0.328 | vorinostat 0.045 | citarinostat 0.02 | silmitasertib 0.116 | [5] 0.336 | [6] -0.104
